Publication doi:10.1101/2023.04.24.538136
These are yes or no findings as the source states them, for the method shown. In cells and extracts the contact can be indirect. Some binding calls cover weakened binding; strength is not graded here.

By UniProt entry, the sequences of proteins in these tests, tags left out. Where a name states a change or a piece, a line headed by the entry shows the natural chain unless it says otherwise. Residues count along the entry.
SPEGα (Q62407, residues 855-3262): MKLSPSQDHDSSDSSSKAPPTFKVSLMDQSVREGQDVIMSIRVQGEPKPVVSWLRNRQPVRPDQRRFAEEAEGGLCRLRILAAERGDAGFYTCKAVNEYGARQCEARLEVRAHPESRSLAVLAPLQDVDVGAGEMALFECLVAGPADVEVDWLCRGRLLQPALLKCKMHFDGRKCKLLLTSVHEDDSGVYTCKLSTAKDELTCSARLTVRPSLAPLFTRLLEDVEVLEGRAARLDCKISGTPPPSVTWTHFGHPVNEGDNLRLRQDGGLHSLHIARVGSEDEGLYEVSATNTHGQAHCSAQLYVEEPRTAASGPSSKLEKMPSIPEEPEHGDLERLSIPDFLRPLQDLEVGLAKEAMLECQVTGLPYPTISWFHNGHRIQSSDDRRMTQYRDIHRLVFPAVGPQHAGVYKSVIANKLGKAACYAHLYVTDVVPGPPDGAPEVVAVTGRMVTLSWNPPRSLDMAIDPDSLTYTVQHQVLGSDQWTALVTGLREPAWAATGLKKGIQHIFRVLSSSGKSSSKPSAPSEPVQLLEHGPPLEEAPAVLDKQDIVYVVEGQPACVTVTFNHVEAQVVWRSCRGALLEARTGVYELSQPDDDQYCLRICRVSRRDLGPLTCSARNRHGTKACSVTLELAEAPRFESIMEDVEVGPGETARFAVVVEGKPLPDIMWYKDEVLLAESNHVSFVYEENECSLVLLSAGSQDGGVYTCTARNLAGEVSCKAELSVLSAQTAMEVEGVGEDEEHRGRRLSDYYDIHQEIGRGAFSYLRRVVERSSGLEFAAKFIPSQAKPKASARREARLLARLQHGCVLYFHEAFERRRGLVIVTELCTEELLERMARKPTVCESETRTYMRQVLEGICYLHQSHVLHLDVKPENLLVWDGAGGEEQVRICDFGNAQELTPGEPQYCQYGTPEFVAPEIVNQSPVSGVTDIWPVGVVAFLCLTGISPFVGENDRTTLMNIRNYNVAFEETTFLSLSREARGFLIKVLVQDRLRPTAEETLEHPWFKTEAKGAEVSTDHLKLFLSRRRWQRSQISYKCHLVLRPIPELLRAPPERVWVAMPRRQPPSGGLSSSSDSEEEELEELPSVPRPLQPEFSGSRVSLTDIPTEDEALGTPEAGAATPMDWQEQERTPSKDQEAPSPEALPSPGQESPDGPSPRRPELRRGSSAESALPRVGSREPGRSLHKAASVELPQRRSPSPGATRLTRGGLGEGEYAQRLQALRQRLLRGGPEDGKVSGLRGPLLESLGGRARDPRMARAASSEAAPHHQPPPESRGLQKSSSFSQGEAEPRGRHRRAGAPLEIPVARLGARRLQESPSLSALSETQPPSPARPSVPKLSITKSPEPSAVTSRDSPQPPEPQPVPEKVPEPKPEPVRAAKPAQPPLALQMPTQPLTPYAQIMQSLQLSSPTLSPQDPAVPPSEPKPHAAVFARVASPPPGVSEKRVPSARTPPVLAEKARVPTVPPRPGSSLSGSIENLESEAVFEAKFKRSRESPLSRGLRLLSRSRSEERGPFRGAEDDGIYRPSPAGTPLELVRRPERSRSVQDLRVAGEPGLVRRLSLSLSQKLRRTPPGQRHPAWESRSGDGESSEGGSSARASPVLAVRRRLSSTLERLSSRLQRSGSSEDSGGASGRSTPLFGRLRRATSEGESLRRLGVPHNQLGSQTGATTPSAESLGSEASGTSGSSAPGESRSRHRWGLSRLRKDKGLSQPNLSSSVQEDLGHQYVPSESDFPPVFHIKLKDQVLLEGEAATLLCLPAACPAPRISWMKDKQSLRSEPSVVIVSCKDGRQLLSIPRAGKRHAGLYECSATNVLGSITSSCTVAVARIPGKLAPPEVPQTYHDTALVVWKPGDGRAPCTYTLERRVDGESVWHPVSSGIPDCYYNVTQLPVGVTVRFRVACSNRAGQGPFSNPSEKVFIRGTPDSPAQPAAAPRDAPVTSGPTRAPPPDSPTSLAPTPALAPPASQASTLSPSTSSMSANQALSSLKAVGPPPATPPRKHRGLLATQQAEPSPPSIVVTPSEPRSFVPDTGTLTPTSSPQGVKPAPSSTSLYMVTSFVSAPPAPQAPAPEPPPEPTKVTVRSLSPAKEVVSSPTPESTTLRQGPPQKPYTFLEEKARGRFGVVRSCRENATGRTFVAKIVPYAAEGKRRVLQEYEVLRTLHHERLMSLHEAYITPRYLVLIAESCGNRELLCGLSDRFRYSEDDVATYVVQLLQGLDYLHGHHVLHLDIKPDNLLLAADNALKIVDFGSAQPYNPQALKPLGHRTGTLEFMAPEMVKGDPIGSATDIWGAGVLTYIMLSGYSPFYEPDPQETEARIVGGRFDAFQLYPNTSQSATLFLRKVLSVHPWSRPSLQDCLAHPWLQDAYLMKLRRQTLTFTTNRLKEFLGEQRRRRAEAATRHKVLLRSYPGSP

How the values were obtained:
[1] = molecular target: T1, fibronectin type III and SPRY domain-containing protein 2 (mouse (endogenous in skeletal muscle)) (UniProt Q8BZ52); experiment: co-IP
T1 sequence: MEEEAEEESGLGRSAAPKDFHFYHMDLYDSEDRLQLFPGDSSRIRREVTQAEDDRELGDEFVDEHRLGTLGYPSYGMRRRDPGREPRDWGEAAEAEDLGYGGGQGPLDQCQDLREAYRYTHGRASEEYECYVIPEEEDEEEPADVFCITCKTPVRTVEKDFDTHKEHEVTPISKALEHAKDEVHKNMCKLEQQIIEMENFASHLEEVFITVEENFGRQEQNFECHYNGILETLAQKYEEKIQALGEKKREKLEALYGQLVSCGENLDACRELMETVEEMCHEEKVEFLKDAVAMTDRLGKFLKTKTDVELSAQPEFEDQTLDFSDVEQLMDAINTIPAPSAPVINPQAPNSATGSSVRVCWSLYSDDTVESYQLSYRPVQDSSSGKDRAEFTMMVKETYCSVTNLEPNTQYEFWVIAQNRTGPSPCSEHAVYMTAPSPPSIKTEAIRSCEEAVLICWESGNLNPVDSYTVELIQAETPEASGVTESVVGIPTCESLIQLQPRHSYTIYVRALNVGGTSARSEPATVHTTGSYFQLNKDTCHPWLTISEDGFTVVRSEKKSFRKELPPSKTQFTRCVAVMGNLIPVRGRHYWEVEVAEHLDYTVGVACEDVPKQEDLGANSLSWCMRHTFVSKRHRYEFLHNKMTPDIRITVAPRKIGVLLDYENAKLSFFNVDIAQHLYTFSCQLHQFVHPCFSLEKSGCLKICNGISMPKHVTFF

[2] = molecular target: ryanodine receptor 1 (mouse (endogenous in skeletal muscle)) (UniProt E9PZQ0); experiment: co-IP

SPEGβ (from UniProt Q62407-1 1-3262)
binding [1]: binds

SPEGα (from UniProt Q62407-4 1-2408)
binding [1]: binds
binding [2]: binds
